{
  "source": "the supplement of paper PMC6411743",
  "assay_in_all_cases": "NP40-soluble protein abundance relative to vehicle (solubility fold change) (ratio); higher = more soluble protein in presence of AMP-PNP",
  "key": {"[1]": {"biological_target": "T1, UniProt Q8IX18 and related entries", "T1 sequence (whole entry)": "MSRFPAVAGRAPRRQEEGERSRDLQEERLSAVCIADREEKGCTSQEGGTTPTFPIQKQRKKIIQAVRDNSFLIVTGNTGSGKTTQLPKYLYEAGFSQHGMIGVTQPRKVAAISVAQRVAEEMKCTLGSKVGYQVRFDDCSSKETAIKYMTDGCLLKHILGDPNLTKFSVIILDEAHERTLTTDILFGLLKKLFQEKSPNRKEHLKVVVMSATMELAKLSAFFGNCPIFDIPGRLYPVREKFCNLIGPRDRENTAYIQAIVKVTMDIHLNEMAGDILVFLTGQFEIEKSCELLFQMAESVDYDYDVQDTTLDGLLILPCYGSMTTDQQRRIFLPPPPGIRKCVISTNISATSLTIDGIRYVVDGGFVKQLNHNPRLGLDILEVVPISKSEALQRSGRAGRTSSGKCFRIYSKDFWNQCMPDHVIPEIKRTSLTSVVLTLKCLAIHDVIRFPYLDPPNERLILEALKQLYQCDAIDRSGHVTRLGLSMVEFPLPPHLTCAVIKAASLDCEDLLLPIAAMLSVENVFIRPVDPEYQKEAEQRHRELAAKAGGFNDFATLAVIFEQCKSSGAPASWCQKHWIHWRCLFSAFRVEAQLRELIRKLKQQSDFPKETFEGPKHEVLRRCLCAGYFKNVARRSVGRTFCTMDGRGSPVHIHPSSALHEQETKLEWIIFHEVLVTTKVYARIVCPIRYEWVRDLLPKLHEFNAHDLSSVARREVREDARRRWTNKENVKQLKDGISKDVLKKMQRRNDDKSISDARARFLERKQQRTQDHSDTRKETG", "summary_of_the_method": "(§1)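 Jurkat crude lysate (Dounce-homogenised) was treated with eight concentrations from 0.1 to 10 mM for 10 min at room temperature, then 3 min at 37 °C. It was solubilised with 0.8% NP40 and benzonase (60 min, 4 °C) and ultracentrifuged, and the supernatant was TMT-labelled for LC-MS/MS. Intensities were vsn-normalised, and the value is the fold change against the NP40-processed vehicle per replicate, from three independent experiments.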"}, "[2]": {"biological_target": "T2, UniProt Q8N0Z3", "T2 sequence (whole entry)": "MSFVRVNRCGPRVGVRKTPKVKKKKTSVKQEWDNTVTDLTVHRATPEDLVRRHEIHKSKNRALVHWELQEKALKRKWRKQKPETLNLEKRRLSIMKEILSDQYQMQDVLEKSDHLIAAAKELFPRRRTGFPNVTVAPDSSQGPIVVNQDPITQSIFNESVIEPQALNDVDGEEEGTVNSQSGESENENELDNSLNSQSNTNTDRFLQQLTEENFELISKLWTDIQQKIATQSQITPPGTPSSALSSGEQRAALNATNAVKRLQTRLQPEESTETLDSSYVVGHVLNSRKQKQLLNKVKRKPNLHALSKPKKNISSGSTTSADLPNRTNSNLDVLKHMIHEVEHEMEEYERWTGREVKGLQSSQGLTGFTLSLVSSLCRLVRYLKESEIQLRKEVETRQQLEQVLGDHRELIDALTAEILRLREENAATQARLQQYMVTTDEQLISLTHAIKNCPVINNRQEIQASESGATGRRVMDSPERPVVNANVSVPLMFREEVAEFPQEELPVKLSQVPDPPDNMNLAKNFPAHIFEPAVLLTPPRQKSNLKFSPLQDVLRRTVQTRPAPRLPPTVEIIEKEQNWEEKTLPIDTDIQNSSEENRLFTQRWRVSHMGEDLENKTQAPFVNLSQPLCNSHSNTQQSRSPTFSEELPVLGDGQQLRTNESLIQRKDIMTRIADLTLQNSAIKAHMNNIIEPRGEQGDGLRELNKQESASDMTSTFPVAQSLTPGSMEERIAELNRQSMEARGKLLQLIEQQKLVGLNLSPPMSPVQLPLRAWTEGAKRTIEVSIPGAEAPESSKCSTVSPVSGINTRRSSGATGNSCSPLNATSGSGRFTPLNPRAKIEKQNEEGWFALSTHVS", "summary_of_the_method": "as §1"}, "[3]": {"biological_target": "T3, UniProt Q8N4Q1 and related entries", "T3 sequence (whole entry)": "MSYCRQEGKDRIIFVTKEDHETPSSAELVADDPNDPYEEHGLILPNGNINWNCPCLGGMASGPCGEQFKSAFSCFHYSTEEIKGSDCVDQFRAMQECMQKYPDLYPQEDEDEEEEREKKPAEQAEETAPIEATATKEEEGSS", "summary_of_the_method": "as §1"}, "[4]": {"biological_target": "T4, UniProt Q8N573 and related entries", "T4 sequence (whole entry)": "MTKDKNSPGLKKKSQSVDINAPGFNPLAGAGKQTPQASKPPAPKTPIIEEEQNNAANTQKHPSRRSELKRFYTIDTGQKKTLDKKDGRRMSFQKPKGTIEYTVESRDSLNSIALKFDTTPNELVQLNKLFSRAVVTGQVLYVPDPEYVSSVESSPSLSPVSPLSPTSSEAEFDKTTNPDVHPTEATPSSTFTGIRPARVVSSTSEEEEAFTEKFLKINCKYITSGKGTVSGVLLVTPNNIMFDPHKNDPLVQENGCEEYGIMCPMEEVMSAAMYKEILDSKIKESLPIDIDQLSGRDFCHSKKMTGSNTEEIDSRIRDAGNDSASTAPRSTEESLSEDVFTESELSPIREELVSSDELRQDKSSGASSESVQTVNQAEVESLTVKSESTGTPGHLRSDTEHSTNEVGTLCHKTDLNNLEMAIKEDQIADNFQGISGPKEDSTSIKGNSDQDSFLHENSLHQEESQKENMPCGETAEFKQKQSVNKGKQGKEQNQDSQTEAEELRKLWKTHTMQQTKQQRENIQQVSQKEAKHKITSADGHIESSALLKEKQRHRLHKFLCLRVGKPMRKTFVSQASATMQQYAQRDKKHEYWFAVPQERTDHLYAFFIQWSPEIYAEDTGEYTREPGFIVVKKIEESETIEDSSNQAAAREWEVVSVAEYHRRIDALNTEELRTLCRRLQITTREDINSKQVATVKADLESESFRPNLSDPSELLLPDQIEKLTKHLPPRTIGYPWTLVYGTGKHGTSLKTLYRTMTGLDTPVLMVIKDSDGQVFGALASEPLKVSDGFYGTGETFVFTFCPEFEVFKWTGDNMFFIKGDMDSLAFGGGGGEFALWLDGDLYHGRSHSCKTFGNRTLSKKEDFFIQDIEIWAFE", "summary_of_the_method": "as §1"}, "[5]": {"biological_target": "T5, UniProt Q8N5A5 and related entries", "T5 sequence (whole entry)": "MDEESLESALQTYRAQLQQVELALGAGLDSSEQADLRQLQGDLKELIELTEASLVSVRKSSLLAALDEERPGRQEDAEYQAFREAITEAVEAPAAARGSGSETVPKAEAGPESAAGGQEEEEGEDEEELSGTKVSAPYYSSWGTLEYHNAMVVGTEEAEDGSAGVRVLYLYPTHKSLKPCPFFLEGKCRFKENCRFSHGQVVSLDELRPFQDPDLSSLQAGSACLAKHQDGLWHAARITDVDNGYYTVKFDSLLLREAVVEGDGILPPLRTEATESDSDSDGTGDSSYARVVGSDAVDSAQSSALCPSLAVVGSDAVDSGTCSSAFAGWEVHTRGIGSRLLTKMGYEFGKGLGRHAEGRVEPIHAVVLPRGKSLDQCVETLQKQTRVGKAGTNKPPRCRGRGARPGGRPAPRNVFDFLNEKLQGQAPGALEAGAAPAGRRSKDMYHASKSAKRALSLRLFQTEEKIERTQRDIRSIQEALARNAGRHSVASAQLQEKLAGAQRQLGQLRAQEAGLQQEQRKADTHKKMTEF", "summary_of_the_method": "as §1"}},
  "note": "± gives the standard deviation of the averaged measurements. The entries are a selection whose mix differs from that of the whole data set.",
  "data": [
    {"smiles": "Nc1ncnc2c1ncn2[C@@H]1O[C@H](COP(=O)(O)OP(=O)(O)NP(=O)(O)O)[C@@H](O)[C@H]1O", "note": "[adenylyl imidodiphosphate]", "values": [
      {"measurement": "NP40-soluble protein abundance", "setting": "[1]; concentration: 1mM", "result": "0.985 ± 0.082"},
      {"measurement": "NP40-soluble protein abundance", "setting": "[1]; concentration: 2mM", "result": "0.975 ± 0.057"},
      {"measurement": "NP40-soluble protein abundance", "setting": "[1]; concentration: 4mM", "result": "0.983 ± 0.061"},
      {"measurement": "NP40-soluble protein abundance", "setting": "[1]; concentration: 6mM", "result": "0.946 ± 0.043"},
      {"measurement": "NP40-soluble protein abundance", "setting": "[1]; concentration: 8mM", "result": "0.981 ± 0.024"},
      {"measurement": "NP40-soluble protein abundance", "setting": "[1]; concentration: 10mM", "result": "0.954 ± 0.026"},
      {"measurement": "NP40-soluble protein abundance", "setting": "[2]; concentration: 1mM", "result": "0.943 ± 0.051"},
      {"measurement": "NP40-soluble protein abundance", "setting": "[2]; concentration: 2mM", "result": "0.976 ± 0.024"},
      {"measurement": "NP40-soluble protein abundance", "setting": "[2]; concentration: 4mM", "result": "0.959 ± 0.03"},
      {"measurement": "NP40-soluble protein abundance", "setting": "[2]; concentration: 6mM", "result": "0.955 ± 0.027"},
      {"measurement": "NP40-soluble protein abundance", "setting": "[2]; concentration: 8mM", "result": "0.957 ± 0.026"},
      {"measurement": "NP40-soluble protein abundance", "setting": "[2]; concentration: 10mM", "result": "0.964 ± 0.02"},
      {"measurement": "NP40-soluble protein abundance", "setting": "[3]; concentration: 1mM", "result": "1.04 ± 0.061"},
      {"measurement": "NP40-soluble protein abundance", "setting": "[3]; concentration: 2mM", "result": "1.1 ± 0.081"},
      {"measurement": "NP40-soluble protein abundance", "setting": "[3]; concentration: 4mM", "result": "0.988 ± 0.066"},
      {"measurement": "NP40-soluble protein abundance", "setting": "[3]; concentration: 6mM", "result": "0.974 ± 0.059"},
      {"measurement": "NP40-soluble protein abundance", "setting": "[3]; concentration: 8mM", "result": "0.921 ± 0.027"},
      {"measurement": "NP40-soluble protein abundance", "setting": "[3]; concentration: 10mM", "result": "0.947 ± 0.09"},
      {"measurement": "NP40-soluble protein abundance", "setting": "[4]; concentration: 1mM", "result": "0.968 ± 0.0097"},
      {"measurement": "NP40-soluble protein abundance", "setting": "[4]; concentration: 2mM", "result": "1.01 ± 0.011"},
      {"measurement": "NP40-soluble protein abundance", "setting": "[4]; concentration: 4mM", "result": "1 ± 0.029"},
      {"measurement": "NP40-soluble protein abundance", "setting": "[4]; concentration: 6mM", "result": "0.957 ± 0.013"},
      {"measurement": "NP40-soluble protein abundance", "setting": "[4]; concentration: 8mM", "result": "0.937 ± 0.016"},
      {"measurement": "NP40-soluble protein abundance", "setting": "[4]; concentration: 10mM", "result": "0.966 ± 0.045"},
      {"measurement": "NP40-soluble protein abundance", "setting": "[5]; concentration: 1mM", "result": "1.07 ± 0.056"},
      {"measurement": "NP40-soluble protein abundance", "setting": "[5]; concentration: 2mM", "result": "1.16 ± 0.054"},
      {"measurement": "NP40-soluble protein abundance", "setting": "[5]; concentration: 4mM", "result": "1.14 ± 0.04"},
      {"measurement": "NP40-soluble protein abundance", "setting": "[5]; concentration: 6mM", "result": "1.15 ± 0.087"},
      {"measurement": "NP40-soluble protein abundance", "setting": "[5]; concentration: 8mM", "result": "1.1 ± 0.032"},
      {"measurement": "NP40-soluble protein abundance", "setting": "[5]; concentration: 10mM", "result": "1.174 ± 0.0064"}
    ]}
  ]
}
